Test [1] concerns the target T1, Tetraodon nigroviridis FXYD8 (Tetraodon nigroviridis (endogenous in pufferfish kidney)) (UniProt Q4RHT7).
T1 sequence: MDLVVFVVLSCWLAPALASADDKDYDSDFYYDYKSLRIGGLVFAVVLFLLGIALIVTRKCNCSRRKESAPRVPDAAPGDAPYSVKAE
The test is described as follows: co-IP; renal crude membrane fractions of freshwater pufferfish; IP with anti-TnFXYD8 antiserum or anti-NKA α5 antibody (ImmunoCruz IP/WB Optima System), PBS as negative control; immunoblot for the other protein.

For test [2], the target named is Na+/K+-ATPase α-subunit (Tetraodon nigroviridis (endogenous in pufferfish kidney)). The test is described as above.

Results are given in words; binding and its absence hold for the method and conditions named. Binding seen in cells or lysates may run through a third protein. Binding can be weak; no strength is given.

As for Na+/K+-ATPase α-subunit, in test [1], the binding entry is listed as “binds”.

B1: Tetraodon nigroviridis FXYD8 (protein, UniProt Q4RHT7 1-87)
chain: T1 sequence
Regarding B1, in test [2], the binding entry is listed as “binds”.

Source of the values: PMC5550679.
